Primary screen of a compound library

Measurements from “University of Dundee, Small-Polar-MMV Screening Library” (2021), ChEMBL document CHEMBL3988442.

A: 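Whole-cell growth test on Mycobacterium tuberculosis, read after 4 days in a medium based on cholesterol and the lipid DPPC; the read-out is not stated. Compounds at 50 µM. Higher reads as more growth inhibition (inferred: compounds with an IC50 in retests scored well above the rest). Of about 69,000 compounds tested this way, about 370 (0.54%) reached 50% or more in at least one test.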
B: 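Growth of Mycobacterium tuberculosis over 3 days (7H9 medium with glucose and tyloxapol); the read-out is not stated. Tested at 50 µM. The record gives no direction; compounds that gave an IC50 in retests scored well above the rest, so higher reads as more growth inhibition. About 69,000 compounds were tested under these conditions; 1.1% (about 760) showed 50% or more at least once.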

Results are given as percent effect.
The record does not define 0% and 100%; most values in the screen are far below 50% and negative numbers occur (in some assays of this library far below -100).
This is an unselected part of the compounds tested.
Two or more numbers in one place are separate tests of the same structure; such repeats can differ widely.

structure	A	B
O=C(O)COc1ccc(Cl)cc1CN1CCC2(CCOCC2)CC1	0.04349	14.19
Cc1cc(C)n(C2CCCN(C(=O)CCOc3ccccc3F)C2)n1 (configuration not stated)	12.4	-13.68
Cc1cc(C(O)CCNC(=O)COc2ccccc2F)c(C)o1 (configuration not stated)	38.26	51 and 27.78
O=C(O)C(F)(F)F.O=C(O)C(F)(F)F.[H][C@@]12CCCO[C@]1([H])[C@H](N1CCCC1)CN(C(=O)c1ccc(C)nc1)C2	7.624	-10.01 and 2.024
Cc1ccn(-c2ccc(NCc3ccnc(N4CCCCC4)c3)nn2)n1	20.39 and -37.46	5.908
Cc1csc(NC(=O)CN(C)CC2CCCN2c2cccnn2)n1 (configuration not stated)	-6.149 and 1.093	15.99
CN(C)c1cc2c(nn1)CCN(C(=O)c1cc3ccccc3o1)C2	-6.707	-6.006
CS(=O)(=O)NCc1cncc2c1CCN(C(=O)c1cccnc1)C2.Cl.Cl	1.377	3.511
CNC(=O)NC(=O)CN1CCC(c2c[nH]c3ccc(OC)cc23)CC1	-16.9	-1.186
Cc1cc(C)nc(N(C)CCn2ccnc2C)n1	-17.55	-12.86
Cc1cc(C)n(C2CCCN(C(=O)c3ccnc(N(C)C)c3)C2)n1 (configuration not stated)	20.26 and -14.77	16.7
O=C(CC1CCN(c2cccnn2)CC1)NC1CCOCC1	-13.23	13.3
CCCNC(=O)c1cccc(CNCc2csc(C(C)C)n2)c1	-27.71	-7.687
Clc1ccc2cccnc2c1CNC1CCc2ncnn2C1 (configuration not stated)	3.535	-17.52
Cc1cn2c(n1)C(CNCc1cccc3c1OCO3)CCC2 (configuration not stated)	1.809	-28.17
C/C=C(/C)C(=O)NS(=O)(=O)c1ccc(C(F)(F)F)cn1	-1.886	25.59 and 0.5313
Cn1cc(CN2CCc3onc(COc4cccnc4)c3C2)cn1.O=C(O)C(F)(F)F.O=C(O)C(F)(F)F	-47.41	-40.98
CNC(=O)NC(=O)CN1CCc2c(Br)ccc(F)c2C1	0.1047	-16.66
O=C(Cn1cnnn1)Nc1ccc(F)cc1OCC1CC1	-0.5116 and -3.254	6.559
CN(C)Cc1cncc2c1CCN(Cc1cnn(C)c1)C2.Cl.Cl.Cl	-16.94	-4.792 and -3.606
Cn1cc2ncn(CCCOc3cccnc3)c(=O)c2n1	-29.59	-1.523
Cc1cc(N2CCCC(c3n[nH]c4ncccc34)C2)ncn1 (configuration not stated)	19.78	25.18
CCS(=O)(=O)NCc1nc(C)cc(N2CCCCC2)n1	5.99	6.865
Cn1ccnc1CNC(=O)CCc1cccc(F)c1	-9.163 and 2.409	-39.79
O=C(c1cccc2c1OCCO2)N1CCCC1c1noc(C2CC2)n1 (configuration not stated)	3.236	18.44
CS(=O)(=O)N1CCN(C(=O)c2cnn3c2OCCC3)CC1	17.24	26.61
CN(C)c1ccc(C(=O)N2CCN(C(=O)N3CCCCC3)CC2)nn1	-8.777	-1.468
O=S(=O)(c1ccc(Cl)cc1)N1CCOC[C@H](Oc2cnccn2)C1	2.901	26.54 and 30.39
CCCn1nc2c(cc1=O)CN(Cc1c(C)noc1C)CC2	-12.68	5.243
CCn1nc(C)c2ncnc(NCCCN3CCOCC3)c21	4.013	1.107
COCCNC(=O)C1CCCN1S(=O)(=O)c1sc(=O)[nH]c1C (configuration not stated)	-1.219	7.192 and 0.559
CC(C)OCc1ncn2c1CN(Cc1ccc(F)cc1)CCC2.O=C(O)C(F)(F)F	-2.267	-17.31
CN(Cc1ccccc1)CC1CC2(CO1)CN(Cc1cnn(C)c1)C2 (configuration not stated)	12.38 and 1.431	-2.916 and 14.64
OCCN1CCN(Cc2cn(-c3ccccc3)nn2)CC1	3.704	-16.04 and -1.101
COC(=O)Cn1cccc(S(=O)(=O)N2CCC(C)CC2)c1=O	-10.21	7.079
COc1cccc(NC(=O)Nc2ccc3c(c2)CC(=O)N3)c1	-26.71	-8.603
Cc1cccc(-c2c[nH]c(C3CCCN3C(=O)C3CCOCC3)n2)c1 (configuration not stated)	-3.757	3.215 and -2.8
COc1cccc(CNC(=O)C(c2cccc(F)c2)N2CCOCC2)c1 (configuration not stated)	9.179	3.378 and 28.35
C[S+](C)[c-]1c(=O)[nH]c(=O)n(CCc2ccc(F)cc2)c1=O	-35.68	4.318 and -12.6
CC(C)NC(=O)N1CCC2(CC1)COc1ccccc1S(=O)(=O)N(C)C2	23.02	23.93
O=C(O)C(F)(F)F.O=S(=O)(C1CC1)N1CC[C@]2(C[C@@H](Oc3ncccc3F)CO2)C1	-6.933	8.474
CCn1cc(CN2CCCN(C(=O)c3ccoc3)CC2)cn1	-1.025	20.06
[H][C@@]12CS(=O)(=O)C[C@]1([H])N(Cc1cc(OC)cc(OC)c1)CCN2CC1CC1	-3.739 and -19.55	5.434
COc1ncccc1CNCc1c(C)nn(C)c1N(C)C	4.111	-3.758
Cc1cc(CN2CCN(C(=O)c3sccc3C3CC3)CC2)on1	-17.47	3.965
C/C(=C\c1ccco1)CN(C)C(C)Cc1cc(C)ccn1 (configuration not stated)	-24.1	3.885
Cc1cc(C(F)(F)F)nn1C(C)C(=O)Nc1ccncc1 (configuration not stated)	-27.24	-26.09
CC(O)CN(C)c1cc(C(F)(F)F)nc(-c2cccnc2)n1 (configuration not stated)	-12.91 and -3.549	22
Cc1ccc(OCC(O)Cn2ncc3cnn(C)c(=O)c32)cc1 (configuration not stated)	11.09	8.871
CN(C)c1ccc(C(O)CNC(=O)NCCCc2ccccc2)cc1 (configuration not stated)	6.656	6.871
CC(=O)c1ccc(-n2c(C)cn(CCC#N)c2=O)cc1	-2.457	-51.51
COCc1ncc(CN2CCC3(CCNC(=O)CC3)CC2)cn1	-10.96	9.766
CC(C)Cn1cncc1-c1nc2c([nH]1)CCCNC2=O	11.66 and -4.35	1.711

Repeated from the top, 4 entries:

| structure | A | B |
|---|---|---|
| `O=C(O)COc1ccc(Cl)cc1CN1CCC2(CCOCC2)CC1` | 0.04349 | 14.19 |
| `Cc1cc(C)n(C2CCCN(C(=O)CCOc3ccccc3F)C2)n1` (configuration not stated) | 12.4 | -13.68 |
| `Cc1cc(C(O)CCNC(=O)COc2ccccc2F)c(C)o1` (configuration not stated) | 38.26 | 51 and 27.78 |
| `O=C(O)C(F)(F)F.O=C(O)C(F)(F)F.[H][C@@]12CCCO[C@]1([H])[C@H](N1CCCC1)CN(C(=O)c1ccc(C)nc1)C2` | 7.624 | -10.01 and 2.024 |